The list shows a part of the results.
What was measured:
Assay in all cases: log2 fold change, soluble protein after heating vs DMSO (PISA); higher = thermal stabilisation; K562 lysate, 10 uM; active = over 0.2 and 3.5 SD of the protein, either way, in both replicates (recomputed)
alvocidib = compound: CN1CC[C@H](c2c(O)cc(O)c3c(=O)cc(-c4ccccc4Cl)oc23)[C@H](O)C1 [alvocidib]
Outline: (§1)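 Quantification was by TMTpro 16plex LC-MS/MS with equalised channel sums, applied to the supernatant after 21,000xg for 90 min. Samples were crude K562 extract at 1 mg/mL protein in PBS pH 7.4 with 1 mM MgCl2, treated with 10 μM compound for 30 min, heated for 3 min across 48°C-58°C, pooled and brought to 0.5% NP-40 at 4°C. Values are log-two fold changes in thermal stability relative to solvent controls, from duplicates.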

Sequences of proteins named here, by UniProt entry; tags and fusion partners are left off. A change or cut given only in a name is not applied to a line headed by its entry.
UniProt Q13094: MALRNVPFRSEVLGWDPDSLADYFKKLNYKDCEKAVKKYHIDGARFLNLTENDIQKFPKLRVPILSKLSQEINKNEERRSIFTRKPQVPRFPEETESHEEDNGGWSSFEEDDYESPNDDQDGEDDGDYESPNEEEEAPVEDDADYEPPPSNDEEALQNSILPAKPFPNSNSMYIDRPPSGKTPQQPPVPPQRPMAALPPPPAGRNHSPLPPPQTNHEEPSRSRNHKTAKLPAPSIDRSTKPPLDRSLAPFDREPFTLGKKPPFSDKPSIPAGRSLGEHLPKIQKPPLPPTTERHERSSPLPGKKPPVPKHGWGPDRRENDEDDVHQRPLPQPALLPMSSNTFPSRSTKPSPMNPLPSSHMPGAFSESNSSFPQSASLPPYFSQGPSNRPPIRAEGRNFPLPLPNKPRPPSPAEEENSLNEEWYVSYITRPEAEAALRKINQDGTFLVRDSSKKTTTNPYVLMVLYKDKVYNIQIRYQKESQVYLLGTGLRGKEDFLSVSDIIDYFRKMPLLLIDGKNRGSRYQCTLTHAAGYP
UniProt Q15031: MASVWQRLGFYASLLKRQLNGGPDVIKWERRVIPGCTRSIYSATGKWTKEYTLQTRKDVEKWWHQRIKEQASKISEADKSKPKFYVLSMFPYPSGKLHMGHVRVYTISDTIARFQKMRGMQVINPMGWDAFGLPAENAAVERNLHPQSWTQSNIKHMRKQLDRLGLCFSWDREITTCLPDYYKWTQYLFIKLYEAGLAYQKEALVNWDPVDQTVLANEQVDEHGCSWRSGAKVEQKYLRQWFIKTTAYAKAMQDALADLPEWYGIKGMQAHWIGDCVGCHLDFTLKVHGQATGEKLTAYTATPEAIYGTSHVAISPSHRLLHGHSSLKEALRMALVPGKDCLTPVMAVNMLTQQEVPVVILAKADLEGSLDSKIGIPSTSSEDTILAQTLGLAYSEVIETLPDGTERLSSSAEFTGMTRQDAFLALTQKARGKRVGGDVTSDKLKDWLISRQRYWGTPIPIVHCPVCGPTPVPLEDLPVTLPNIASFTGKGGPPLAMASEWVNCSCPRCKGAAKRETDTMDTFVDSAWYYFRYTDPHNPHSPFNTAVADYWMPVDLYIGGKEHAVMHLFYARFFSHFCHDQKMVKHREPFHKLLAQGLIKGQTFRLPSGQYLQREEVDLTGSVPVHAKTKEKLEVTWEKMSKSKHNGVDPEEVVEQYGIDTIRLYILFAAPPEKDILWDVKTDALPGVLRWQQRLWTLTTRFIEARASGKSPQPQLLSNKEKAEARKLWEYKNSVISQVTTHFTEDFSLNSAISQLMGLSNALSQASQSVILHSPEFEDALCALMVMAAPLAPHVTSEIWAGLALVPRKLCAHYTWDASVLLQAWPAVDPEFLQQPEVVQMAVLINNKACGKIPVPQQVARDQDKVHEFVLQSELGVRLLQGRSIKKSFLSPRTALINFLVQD
UniProt Q7L1W4: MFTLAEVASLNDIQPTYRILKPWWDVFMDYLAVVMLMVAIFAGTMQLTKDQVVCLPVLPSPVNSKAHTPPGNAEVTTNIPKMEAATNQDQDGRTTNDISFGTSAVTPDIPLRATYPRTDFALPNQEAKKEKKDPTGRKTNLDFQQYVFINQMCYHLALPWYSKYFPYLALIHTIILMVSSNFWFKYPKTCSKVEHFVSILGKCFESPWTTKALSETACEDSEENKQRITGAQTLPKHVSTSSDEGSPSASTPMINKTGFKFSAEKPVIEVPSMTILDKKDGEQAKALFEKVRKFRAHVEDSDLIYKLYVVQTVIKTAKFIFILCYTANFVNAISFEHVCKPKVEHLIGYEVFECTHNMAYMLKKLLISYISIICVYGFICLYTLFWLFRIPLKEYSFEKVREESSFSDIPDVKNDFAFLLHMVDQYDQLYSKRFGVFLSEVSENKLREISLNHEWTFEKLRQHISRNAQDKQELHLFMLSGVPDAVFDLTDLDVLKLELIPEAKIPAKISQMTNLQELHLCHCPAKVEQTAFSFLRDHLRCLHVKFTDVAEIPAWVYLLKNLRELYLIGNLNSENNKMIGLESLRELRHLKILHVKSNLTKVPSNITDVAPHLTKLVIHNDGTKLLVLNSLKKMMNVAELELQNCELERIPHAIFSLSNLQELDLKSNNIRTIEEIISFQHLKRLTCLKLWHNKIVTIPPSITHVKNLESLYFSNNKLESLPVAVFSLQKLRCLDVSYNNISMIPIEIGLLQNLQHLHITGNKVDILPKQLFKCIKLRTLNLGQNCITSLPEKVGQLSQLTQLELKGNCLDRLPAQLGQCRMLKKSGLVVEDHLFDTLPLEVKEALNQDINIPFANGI
UniProt P20700: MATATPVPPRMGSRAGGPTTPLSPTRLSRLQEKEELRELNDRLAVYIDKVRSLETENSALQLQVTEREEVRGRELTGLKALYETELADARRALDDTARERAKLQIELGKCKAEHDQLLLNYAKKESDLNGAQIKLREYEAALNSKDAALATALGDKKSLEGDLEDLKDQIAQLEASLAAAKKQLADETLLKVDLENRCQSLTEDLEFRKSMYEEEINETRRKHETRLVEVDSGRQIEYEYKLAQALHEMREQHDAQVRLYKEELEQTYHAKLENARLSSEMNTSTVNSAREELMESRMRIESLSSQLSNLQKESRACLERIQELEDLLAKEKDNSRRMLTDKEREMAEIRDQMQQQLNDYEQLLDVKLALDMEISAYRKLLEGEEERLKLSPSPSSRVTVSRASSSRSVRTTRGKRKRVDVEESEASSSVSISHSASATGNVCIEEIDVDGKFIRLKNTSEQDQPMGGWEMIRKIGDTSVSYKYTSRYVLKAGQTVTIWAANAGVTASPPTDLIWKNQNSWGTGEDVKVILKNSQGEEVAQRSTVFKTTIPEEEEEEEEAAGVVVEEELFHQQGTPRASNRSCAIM
UniProt Q9BX40: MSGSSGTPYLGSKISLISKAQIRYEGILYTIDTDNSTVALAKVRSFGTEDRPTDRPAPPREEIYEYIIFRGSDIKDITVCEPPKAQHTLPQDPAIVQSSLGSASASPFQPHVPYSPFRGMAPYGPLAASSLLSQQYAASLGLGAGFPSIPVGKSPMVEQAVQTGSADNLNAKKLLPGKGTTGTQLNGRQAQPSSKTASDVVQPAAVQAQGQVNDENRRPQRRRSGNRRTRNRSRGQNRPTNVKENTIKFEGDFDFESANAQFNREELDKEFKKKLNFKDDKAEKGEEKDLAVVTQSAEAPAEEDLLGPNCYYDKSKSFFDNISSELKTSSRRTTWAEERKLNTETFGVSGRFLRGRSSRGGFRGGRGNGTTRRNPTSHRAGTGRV
UniProt Q9NUN5: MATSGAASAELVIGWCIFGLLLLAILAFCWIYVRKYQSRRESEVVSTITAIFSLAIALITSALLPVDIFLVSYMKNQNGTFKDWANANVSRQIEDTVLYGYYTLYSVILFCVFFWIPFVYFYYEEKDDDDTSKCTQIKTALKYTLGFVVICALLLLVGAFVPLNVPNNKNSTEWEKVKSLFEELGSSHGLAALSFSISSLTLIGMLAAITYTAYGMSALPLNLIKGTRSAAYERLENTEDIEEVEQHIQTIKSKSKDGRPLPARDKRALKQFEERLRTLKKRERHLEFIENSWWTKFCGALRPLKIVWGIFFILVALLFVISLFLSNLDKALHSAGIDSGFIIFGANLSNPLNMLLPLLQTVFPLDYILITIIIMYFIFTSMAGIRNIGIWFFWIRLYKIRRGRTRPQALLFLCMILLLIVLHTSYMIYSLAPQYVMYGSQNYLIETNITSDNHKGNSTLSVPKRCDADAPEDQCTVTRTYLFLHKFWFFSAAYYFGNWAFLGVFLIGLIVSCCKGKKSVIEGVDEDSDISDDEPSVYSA
UniProt Q96AG4: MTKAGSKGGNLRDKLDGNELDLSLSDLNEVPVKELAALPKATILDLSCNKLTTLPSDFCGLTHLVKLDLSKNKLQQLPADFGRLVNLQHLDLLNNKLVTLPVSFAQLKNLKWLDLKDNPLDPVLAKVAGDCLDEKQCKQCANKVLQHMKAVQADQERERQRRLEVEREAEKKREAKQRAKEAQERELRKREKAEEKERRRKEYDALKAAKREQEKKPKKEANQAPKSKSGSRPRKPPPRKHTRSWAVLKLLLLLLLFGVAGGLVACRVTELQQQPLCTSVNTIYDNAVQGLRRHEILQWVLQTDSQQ
UniProt Q15048: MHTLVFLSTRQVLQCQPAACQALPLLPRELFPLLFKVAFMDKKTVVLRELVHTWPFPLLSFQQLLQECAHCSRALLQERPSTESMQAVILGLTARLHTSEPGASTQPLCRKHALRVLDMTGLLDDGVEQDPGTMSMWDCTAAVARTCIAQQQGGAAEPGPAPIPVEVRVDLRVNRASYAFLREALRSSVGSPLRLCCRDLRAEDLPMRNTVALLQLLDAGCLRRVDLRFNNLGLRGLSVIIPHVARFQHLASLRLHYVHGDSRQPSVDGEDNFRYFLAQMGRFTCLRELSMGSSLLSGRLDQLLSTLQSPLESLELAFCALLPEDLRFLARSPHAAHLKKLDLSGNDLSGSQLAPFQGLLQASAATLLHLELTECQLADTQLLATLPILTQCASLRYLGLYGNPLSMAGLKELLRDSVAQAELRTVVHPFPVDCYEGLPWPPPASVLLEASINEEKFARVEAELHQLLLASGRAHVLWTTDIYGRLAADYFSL

Tubastatin A = compound: CN1CCc2c(c3ccccc3n2Cc2ccc(C(=O)NO)cc2)C1 [Tubastatin A]
Outline: as §1

[1] = compound: CNC(=O)C1=CC=CC=C1NC2=NC(=NC=C2Cl)NC3=C(C=C(C=C3)N4CCOCC4)OC
Outline: as §1

defactinib = compound: CNC(=O)c1ccc(Nc2ncc(C(F)(F)F)c(NCc3nccnc3N(C)S(C)(=O)=O)n2)cc1 [defactinib]
Outline: as §1

[2] = compound: CNc1nc(-c2ccc3c(N)n[nH]c3c2)cc(N2C[C@@H](C(=O)NC3CCCCC3)CC[C@H]2C)n1
Outline: as §1

encorafenib = compound: COC(=O)N[C@@H](C)CNc1nccc(-c2cn(C(C)C)nc2-c2cc(Cl)cc(NS(C)(=O)=O)c2F)n1 [encorafenib]
Outline: as §1

[3] = compound: COC(=O)[C@H](CCSC)NC(=O)C1=C(C=C(C=C1)NC[C@H](CS)N)C2=CC=CC=C2
Outline: as §1

alisertib = compound: COc1cc(Nc2ncc3c(n2)-c2ccc(Cl)cc2C(c2c(F)cccc2OC)=NC3)ccc1C(=O)O [alisertib]
Outline: as §1

[4] = compound: COc1cc2nc(-c3cc(F)ccc3O)nc(N[C@@H]3CNC[C@H]3C(C)(C)O)c2cc1OC
Outline: as §1

gefitinib = compound: COc1cc2ncnc(Nc3ccc(F)c(Cl)c3)c2cc1OCCCN1CCOCC1 [gefitinib]
Outline: as §1

lapatinib = compound: CS(=O)(=O)CCNCc1ccc(-c2ccc3ncnc(Nc4ccc(OCc5cccc(F)c5)c(Cl)c4)c3c2)o1 [lapatinib]
Outline: as §1

pictilisib = compound: CS(=O)(=O)N1CCN(Cc2cc3nc(-c4cccc5[nH]ncc45)nc(N4CCOCC4)c3s2)CC1 [pictilisib]
Outline: as §1

crizotinib = compound: C[C@@H](Oc1cc(-c2cnn(C3CCNCC3)c2)cnc1N)c1c(Cl)ccc(F)c1Cl [crizotinib]
Outline: as §1

[5] = compound: C[C@H](C1=CC=C(C=C1)C(=O)NC2=C3C=CNC3=NC=C2)N
Outline: as §1

duvelisib = compound: C[C@H](Nc1ncnc2nc[nH]c12)c1cc2cccc(Cl)c2c(=O)n1-c1ccccc1 [duvelisib]
Outline: as §1

gandotinib = compound: Cc1cc(Nc2cc(CN3CCOCC3)c3nc(C)c(Cc4ccc(Cl)cc4F)n3n2)n[nH]1 [gandotinib]
Outline: as §1

tozasertib = compound: Cc1cc(Nc2cc(N3CCN(C)CC3)nc(Sc3ccc(NC(=O)C4CC4)cc3)n2)n[nH]1 [tozasertib]
Outline: as §1

doramapimod = compound: Cc1ccc(-n2nc(C(C)(C)C)cc2NC(=O)Nc2ccc(OCCN3CCOCC3)c3ccccc23)cc1 [doramapimod]
Outline: as §1

bafetinib = compound: Cc1ccc(NC(=O)c2ccc(CN3CC[C@H](N(C)C)C3)c(C(F)(F)F)c2)cc1Nc1nccc(-c2cncnc2)n1 [bafetinib]
Outline: as §1

[6] = compound: Cc1cccc(CC(=O)N2CCc3c2ccc(-c2cn(C)c4ncnc(N)c24)c3F)n1
Outline: as §1

Measured: log2 fold change

LCP2 (UniProt Q13094)
inactive: alvocidib 0.016 | Tubastatin A -0.016 | [1] 0.025 | defactinib 0.018 | [2] -0.036 | encorafenib -0.019 | [3] -0.072 | alisertib -0.034 | [4] -0.007 | gefitinib 0.029 | lapatinib 0.004 | pictilisib 0.003 | crizotinib 0.003 | [5] 0.036 | duvelisib -0.088 | gandotinib 0.001 | tozasertib 0.014 | doramapimod 0.02 | bafetinib -0.027 | [6] -0.048

LARS2 (UniProt Q15031)
inactive: alvocidib 0.021 | Tubastatin A -0.06 | [1] -0.047 | defactinib 0.013 | [2] -0.088 | encorafenib 0.038 | [3] -0.115 | alisertib 0.051 | [4] 0.007 | gefitinib 0.012 | lapatinib -0.012 | pictilisib -0.073 | crizotinib -0.047 | [5] 0.014 | duvelisib -0.039 | gandotinib -0.2 | tozasertib 0.054 | doramapimod 0.012 | bafetinib -0.067 | [6] 0.044

LRRC8D (UniProt Q7L1W4)
inactive: alvocidib -0.023 | Tubastatin A 0.036 | [1] -0.031 | defactinib -0.038 | [2] 0.008 | encorafenib 0.023 | [3] 0.106 | alisertib 0.004 | [4] 0.051 | gefitinib 0.003 | lapatinib -0.061 | pictilisib -0.029 | crizotinib 0.004 | [5] -0.083 | duvelisib 0.068 | gandotinib -0.002 | tozasertib -0.053 | doramapimod 0.008 | bafetinib -0.012 | [6] 0.105

LMNB1 (UniProt P20700)
inactive: alvocidib -0.035 | Tubastatin A 0.002 | [1] -0.013 | defactinib -0.009 | [2] -0.04 | encorafenib 0.029 | [3] -0.044 | alisertib -0.011 | [4] 0.011 | gefitinib 0.001 | lapatinib 0.008 | pictilisib -0.029 | crizotinib -0.007 | [5] -0.075 | duvelisib 0.008 | gandotinib -0.029 | tozasertib 0.018 | doramapimod 0.021 | bafetinib -0.035 | [6] 0.013

LSM14B isoform 2 (UniProt Q9BX40)
inactive: alvocidib 0.011 | Tubastatin A -0.061 | [1] 0.036 | defactinib -0.033 | [2] -0.005 | encorafenib 0.049 | [3] 0.139 | alisertib 0.043 | [4] -0.011 | gefitinib 0.024 | lapatinib 0.039 | pictilisib -0.022 | crizotinib 0.032 | [5] -0.064 | duvelisib -0.02 | gandotinib -0.009 | tozasertib -0.053 | doramapimod 0.149 | bafetinib -0.158 | [6] 0.034

LMBRD1 (UniProt Q9NUN5)
inactive: alvocidib -0.132 | Tubastatin A -0.024 | [1] 0.019 | defactinib 0.004 | [2] 0.012 | encorafenib 0.11 | [3] -0.017 | alisertib 0.009 | [4] 0.008 | gefitinib -0.035 | lapatinib -0.027 | pictilisib 0.045 | crizotinib 0.01 | [5] 0.083 | duvelisib -0.024 | gandotinib 0.122 | tozasertib -0.07 | doramapimod -0.01 | bafetinib 0.018 | [6] -0.049

LRRC59 (UniProt Q96AG4)
inactive: alvocidib -0.005 | Tubastatin A 0.096 | [1] -0.014 | defactinib -0.008 | [2] 0.036 | encorafenib -0.045 | [3] -0.187 | alisertib -0.002 | [4] -0.008 | gefitinib -0.03 | lapatinib -0.015 | pictilisib -0.007 | crizotinib 0.011 | [5] -0.011 | duvelisib -0.037 | gandotinib 0.009 | tozasertib 0.009 | doramapimod 0.004 | bafetinib 0.041 | [6] -0.039

LRRC14 (UniProt Q15048)
inactive: alvocidib -0.065 | Tubastatin A -0.152 | [1] -0.009 | defactinib -0.038 | [2] -0.007 | encorafenib 0.224 | [3] 0.044 | alisertib 0.015 | [4] -0.056 | gefitinib 0.007 | lapatinib -0.047 | pictilisib -0.037 | crizotinib 0.027 | [5] -0.134 | duvelisib 0.086 | gandotinib -0.086 | tozasertib -0.045 | doramapimod -0.022 | bafetinib -0.075 | [6] 0.062
